Results published in article PMC5894220.
These are yes or no findings as the source states them, for the method shown. Binding seen in cells or lysates may run through a third protein. For part of these data: Binding can be weak; no strength is given.

B1: starch branching enzyme I (enzyme, UniProt Q01401 65-820)
chain: TMVTVVEEVDHLPIYDLDPKLEEFKDHFNYRIKRYLDQKCLIEKHEGGLEEFSKGYLKFGINTVDGATIYREWAPAAQEAQLIGEFNNWNGAKHKMEKDKFGIWSIKISHVNGKPAIPHNSKVKFRFRHGGGAWVDRIPAWIRYATFDASKFGAPYDGVHWDPPACERYVFKHPRPPKPDAPRIYEAHVGMSGEEPEVSTYREFADNVLPRIRANNYNTVQLMAIMEHSYYASFGYHVTNFFAVSSRSGTPEDLKYLVDKAHSLGLRVLMDVVHSHASNNVTDGLNGYDVGQNTHESYFHTGDRGYHKLWDSRLFNYANWEVLRFLLSNLRYWMDEFMFDGFRFDGVTSMLYHHHGINKGFTGNYKEYFSLDTDVDAIVYMMLANHLMHKLLPEATIVAEDVSGMPVLCRPVDEGGVGFDFRLAMAIPDRWIDYLKNKEDRKWSMSEIVQTLTNRRYTEKCIAYAESHDQSIVGDKTIAFLLMDKEMYTGMSDLQPASPTINRGIALQKMIHFITMALGGDGYLNFMGNEFGHPEWIDFPREGNNWSYDKCRRQWSLVDTDHLRYKYMNAFDQAMNALEEEFSFLSSSKQIVSDMNEKDKVIVFERGDLVFVFNFHPNKTYKGYKVGCDLPGKYRVALDSDALVFGGHGRVGHDVDHFTSPEGMPGVPETNFNNRPNSFKVLSPPRTCVAYYRVDEDREELRRGGAVASGKIVTEYIDVEATSGETISGGWKGSEKDDCGKKGMKFVFRSSDEDCK

Legend:
[1] = biological target: T1, starch synthase IIa (rice, Oryza sativa japonica cv. Nipponbare (endogenous in developing seeds)) (UniProt Q0DDE3); experiment: condition: only in extract of ss1^L/ss2a^L/SS3a seeds; co-IP; as a1, soluble proteins of developing seeds of ss1^L/ss2a^L/SS3a (SSI reduced); control with pre-immune serum
T1 sequence: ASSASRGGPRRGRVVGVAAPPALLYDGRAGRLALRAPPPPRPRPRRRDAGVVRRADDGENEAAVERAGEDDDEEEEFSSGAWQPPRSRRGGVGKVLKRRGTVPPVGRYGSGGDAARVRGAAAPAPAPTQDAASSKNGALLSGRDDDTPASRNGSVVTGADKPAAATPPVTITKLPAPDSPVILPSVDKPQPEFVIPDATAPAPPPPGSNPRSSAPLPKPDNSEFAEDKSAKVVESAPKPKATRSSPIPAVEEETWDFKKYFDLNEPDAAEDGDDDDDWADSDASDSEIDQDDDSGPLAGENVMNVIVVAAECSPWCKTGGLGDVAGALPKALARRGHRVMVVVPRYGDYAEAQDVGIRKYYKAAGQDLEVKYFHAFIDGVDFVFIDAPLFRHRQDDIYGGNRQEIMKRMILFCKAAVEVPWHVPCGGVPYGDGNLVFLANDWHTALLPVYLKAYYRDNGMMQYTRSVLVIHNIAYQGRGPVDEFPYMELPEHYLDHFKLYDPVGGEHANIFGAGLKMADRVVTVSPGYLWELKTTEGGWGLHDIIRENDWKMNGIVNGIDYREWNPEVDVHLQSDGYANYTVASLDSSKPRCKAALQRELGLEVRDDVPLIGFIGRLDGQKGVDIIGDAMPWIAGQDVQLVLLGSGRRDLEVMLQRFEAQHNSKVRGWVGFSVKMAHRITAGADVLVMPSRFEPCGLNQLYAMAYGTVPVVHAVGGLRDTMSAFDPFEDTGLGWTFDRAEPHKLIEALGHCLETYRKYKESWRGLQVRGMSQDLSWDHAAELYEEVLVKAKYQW

[2] = biological target: T1, starch synthase IIa (rice, Oryza sativa japonica cv. Nipponbare (endogenous in developing seeds)); experiment: co-IP; immuno-precipitation with isozyme specific antibodies from soluble proteins of developing rice seeds, immuno-blotting; wild-type Nipponbare (SS1/ss2a^L/SS3a); the BEI-BEIIb, BEI-PUL and Pho1-BEIIa pairs also in the three mutant lines; control with pre-immune serum
[3] = biological target: T1, starch synthase IIa (rice, Oryza sativa japonica cv. Nipponbare (endogenous in developing seeds)); experiment: condition: only in extract of ss1^L/ss2a^L/ss3a seeds; co-IP; as a1, soluble proteins of developing seeds of ss1^L/ss2a^L/ss3a (SSI reduced, SSIIIa absent); control with pre-immune serum
[4] = biological target: T1, starch synthase IIa (rice, Oryza sativa japonica cv. Nipponbare (endogenous in developing seeds)); experiment: condition: only in extract of SS1/ss2a^L/ss3a seeds; co-IP; as a1, soluble proteins of developing seeds of SS1/ss2a^L/ss3a (SSIIIa absent); control with pre-immune serum
[5] = biological target: pullulanase (rice, Oryza sativa japonica cv. Nipponbare (endogenous in developing seeds)); experiment: co-IP; immuno-precipitation with isozyme specific antibodies from soluble proteins of developing rice seeds, immuno-blotting; wild-type Nipponbare (SS1/ss2a^L/SS3a); the BEI-BEIIb, BEI-PUL and Pho1-BEIIa pairs also in the three mutant lines; control with pre-immune serum
[6] = biological target: starch branching enzyme IIb (rice, Oryza sativa japonica cv. Nipponbare (endogenous in developing seeds)); experiment: as above

Molecule | binding [1] | binding [2] | binding [3] | binding [4] | binding [5] | binding [6]
starch branching enzyme IIb | no binding | binds | no binding | no binding | – | –
B1 | – | – | – | – | binds | binds
